Measurements reported in patent publication US5565424A, “Superactive VIP antagonists” (Ramot - University Authority for Applied Research and …, priority 1994, dated 1996).
Part of at least one peptide drawing is inferred or uncertain, most often the ends. Non-standard residues stand in square brackets, D forms with d. Residues, ends and D or L forms follow the SMILES beside them. No end group written: not given here. *: point of attachment. Stearoyl = CCCCCCCCCCCCCCCCCC(=O)*; Nle = CCCC[C@H](N)C(=O)O

Assays:
[1] = system: cAMP (low affinity) VIP receptor on astroglia cells; assay: Displacement of 125I-VIP from astroglia cells; conditions: central nervous system, FIGS. 2 and 3
[2] = system: c-fos mRNA in NCIH810 cells; assay: c-fos mRNA assay; assay type: cell-based
Experimental: In addition, the ability of VIP and the S-hybrid VIP antagonist to stimulate c-fos mRNA was examined; c-fos mRNA is a marker for cancer cell proliferation. […] This is true regardless of whether the VIP antagonist is co-administered with VIP or added by itself (See, Table IV, infra).
^a NCIH810 cells were treated with the peptide and the cfos mRNA
determined after 1 hour.
For the c-fos experiments, SCLC cells were cultured with SIT medium containing 0.5% fetal bovine serum. After 4 hours, the cells were treated with stimuli such as 10 nM BN for 60 min. Total RNA was isolated using the guanidinium isothiocyanate (GIT) method. Ten μg of denatured RNA was separated in a 0.66M formaldehyde 1% agarose gel as previously described. The gel was treated with ethidium bromide tp assess RNA integrity. The RNA was blotted onto a nitrocellulose membrane overnight and the membrane hybridized with a c-fos probe labelled with ^32 P-dCTP using a Bethesda Research Laboratories random priming kit. The membrane was exposed to Kodax XAR-2 film at […] for 1 day and the autoradiogram developed. The autoradiogram were analyzed using a Molecular Dynamics densitometer.

[3] = system: dissociated mouse spinal cord cultures (neurons); assay: Neuronal survival in dissociated spinal cord cultures; assay type: cell-based; conditions: central nervous system, FIG. 1
[4] = system: VIP receptors present in NSCLC cells (NCI-H838 cells); assay: 125I-VIP binding to VIP receptor containing NSCLC tumor cells; conditions: for fold more potent than the hybrid antagonist at inhibiting 125I-VIP binding: NSCLC cells (e.g., NCI-H838 cells); for IC50: read-out: IC50, mean concentration required to half maximally inhibit 125I-VIP binding, NCIH383 cells
[5] = system: VIP-stimulated cAMP formation in astrocytes; assay: VIP-stimulated cAMP formation in cortical astrocyte cultures; assay type: cell-based, rat; conditions: FIG. 2; for inhibition of VIP-induced cAMP formation (in words): 1 μM VIP, astrocytes
Experimental: FIG. 2. VIP-stimulated cAMP formation was inhibited in the presence of the family of VIP antagonists. Cortical astrocyte cultures were incubated for 10 min with 1 μm VIP and cAMP accumulation was determined by radioimmunoassay (Gozes, et al., J. Pharmacol. & Exp. Therap., 257:959 (1991)). Increasing concentrations of the antagonists were placed in the astrocyte cultures 5 minutes prior to the addition of VIP. Astrocytes were maintained in 35 mm tissue culture dishes with 0.3 mg protein per dish. Each value is the mean of 8-10 determinations from 4 experiments. […] The error bar is the SEM.
In view of the foregoing, astroglia cells were utilized to compare the effects the VIP antagonists of the present invention have on VIP-stimulated cAMP formation. For cAMP determinations, the general protocols involve either the measurement of adenylate cyclase activity or, the use of radioimmunoassays for cAMP which utilize a cAMP determination kit from NEN (New England Nuclear, Boston, Mass.)36 previously described by Gozes, et al. (J. Pharmacol. Exp. Therap., 257:959 (1991)). An HCl (0.05M) extract neutralizecl with 0.5M NaOH may be utilized for the tests.
Rat astrocytes were maintained in cell culture as described above. The accumulation of cAMP was measured by radio-immunoassay (NEN kit, New England Nuclear) from cold trichloro acetic acid extracts (Evans et al., supra, 1984). The various VIP antagonists were preincubated with the astrocyte cultures for 5 min before the incubation with 1 μM VIP, for 10 additional min. The affinity of the VIP antagonists for the adenylate cyclase-coupled VIP receptor and for the VIP receptor linked to neuronal survival (see above) were assessed by measuring the ability of the VIP antagonists to cause a parallel rightward shift of the VIP dose-response curve (Mayer, J. Pharmacol. Exp. Ther., 161:116-125 ((1972)). The dissociation constants for the VIP antagonists were calculated from the equation Ka =[antagonist]/(CR-1), where CR=the ratio of equiactive concentrations of VIP in the presence and absence of the given concentration of antagonist. Equiactive concentrations (EC) of VIP were assessed at the midpoints of the stimulation curves.

[6] = system: Sprague-Dawley rat pups, locomotive activity rhythm; assay: Circadian motor activity rhythms after chronic injection; assay type: in vivo; conditions: 5 μg/day subcutaneous, 28 days, newborn rat pups
Experimental: FIGS. 4(A-J). VIP antagonism disturbed the biological clock via a cAMP-mediated mechanism. Newborn rat pups (Sprague-Dawley, locally bread, Yoxheam, Israel) were chronically injected with VIP analogues (5 μg of each analogue/50 μl/day, subcutaneous), for 28 consecutive days. The vehicle of injection was either 0.01M acetic acid or 15% dimethylsulfoxide (for the lipophilic peptides). On day 21, the animals were placed each one in a separate cage and their locomotive activity was continuously measured. The pattern of locomotive activity was measured using an animal monitoring system with an infrared detector for 7 days (A, C, E, G, I). The spectral periods of rhythm in the activity data was detected by a special statistical method because of the short computer sampling period. […]
Animals were each placed in a separate cage and motor activity was continuously recorded for 6-9 days, using an animal monitoring system with an infrared detector. Spectral analysis of motor activity rhythms is then determined by the fitting of different cosine curves to the activity data (see, Mattes, et al., Chronobiology Int'l, 8:460 (1991)).

NCI-H727 = conditions: 1 μM addition, control 35.2 ± 2.3
NCI-H1299 = conditions: 1 μM addition, control 29 ± 3.1
NCI-H226 = conditions: 1 μM addition, control 43.1 ± 5.7

Row | Molecule | affinity for the cAMP (low affinity) VIP receptor (in words) [1] | c-fos mRNA ([2]; 1 μM alone, NCIH810 cells, after 1 hour, NONE = 1.0) | effect on c-fos mRNA (in words) ([2]; antagonist co-administered with VIP or added by itself) | affinity for the VIP-neuronal survival associated receptor (in words) [3] | fold more potent than the hybrid antagonist at inhibiting 125I-VIP binding [4] [fold] | IC50 [4] [nM] | inhibition of VIP-induced cAMP formation (in words) [5] | fold less potent in inhibiting VIP-induced cAMP formation than hybrid or NL-hybrid VIP antagonist [5] [fold] | diurnal rhythms [6] | effect on 24 hours periodicity of activity rhythm [6] | NSCLC colony formation (colonies) (NCI-H727) | NSCLC colony formation (colonies) (NCI-H1299) | NSCLC colony formation (colonies) (NCI-H226)
1 | CCCCCCCCCCCCCCCCCC(=O)N[C@@H](CCCCN)C(=O)N1CCC[C@H]1C(=O)N[C@@H](CCCNC(=N)N)C(=O)N[C@@H](CCCNC(=N)N)C(=O)N1CCC[C@H]1C(=O)N[C@@H](Cc1ccc(O)cc1)C(=O)N[C@H](C(=O)N[C@@H](CC(=O)O)C(=O)N[C@@H](CC(N)=O)C(=O)N[C@@H](Cc1ccc(O)cc1)C(=O)N[C@H](C(=O)N[C@@H](CCCNC(=N)N)C(=O)N[C@@H](CC(C)C)C(=O)N[C@@H](CCCNC(=N)N)C(=O)N[C@@H](CCCCN)C(=O)N[C@@H](CCC(N)=O)C(=O)N[C@@H](CCSC)C(=O)N[C@@H](C)C(=O)N[C@H](C(=O)N[C@@H](CCCCN)C(=O)N[C@@H](CCCCN)C(=O)N[C@@H](Cc1ccc(O)cc1)C(=O)N[C@@H](CC(C)C)C(=O)N[C@@H](CC(N)=O)C(=O)N[C@@H](CO)C(=O)N[C@H](C(=O)N[C@@H](CC(C)C)C(=O)N[C@@H](CC(N)=O)C(N)=O)[C@@H](C)CC)C(C)C)[C@@H](C)O)[C@@H](C)O [S-Hybrid VIP Antagonist] (Stearoyl-KPRRPYTDNYTRLRKQMAVKKYLNSILN-NH2) | lower affinity | 0.8 | effectively inhibits c-los mRNA | higher affinity | 6 | 500 | do not effectively inhibit VIP-induced cAMP formation |  |  |  |  |  | 
2 | CCCCCCCCCCCCCCCCCC(=O)N[C@@H](CCCCN)C(=O)N1CCC[C@H]1C(=O)N[C@@H](CCCNC(=N)N)C(=O)N[C@@H](CCCNC(=N)N)C(=O)N1CCC[C@H]1C(=O)N[C@@H](Cc1ccc(O)cc1)C(=O)N[C@H](C(=O)N[C@@H](CC(=O)O)C(=O)N[C@@H](CC(N)=O)C(=O)N[C@@H](Cc1ccc(O)cc1)C(=O)N[C@H](C(=O)N[C@@H](CCCNC(=N)N)C(=O)N[C@@H](CC(C)C)C(=O)N[C@@H](CCCNC(=N)N)C(=O)N[C@@H](CCCCN)C(=O)N[C@@H](CCC(N)=O)C(=O)N[C@@H](CCCC)C(=O)N[C@@H](C)C(=O)N[C@H](C(=O)N[C@@H](CCCCN)C(=O)N[C@@H](CCCCN)C(=O)N[C@@H](Cc1ccc(O)cc1)C(=O)N[C@@H](CC(C)C)C(=O)N[C@@H](CC(N)=O)C(=O)N[C@@H](CO)C(=O)N[C@H](C(=O)N[C@@H](CC(C)C)C(=O)N[C@@H](CC(N)=O)C(N)=O)[C@@H](C)CC)C(C)C)[C@@H](C)O)[C@@H](C)O [S-NL-Hybrid VIP Antagonist] (Stearoyl-KPRRPYTDNYTRLRKQ[Nle]AVKKYLNSILN-NH2) | lower affinity |  |  | higher affinity | 25 | 200 | do not effectively inhibit VIP-induced cAMP formation | 100 | some changes in the diurnal rhythms occurred | no effect on the 24 hours periodicity |  |  | 
3 | KPRRPYTDNYTRLRKQMAVKKYLNSILN-NH2 [Hybrid VIP Antagonist, reference compound] |  |  |  |  |  |  | effectively inhibits VIP-induced cAMP formation |  |  |  | 0.7 ± 0.9 | 14.3 ± 4.0 | 20.0 ± 6.7
